{
  "source": "patent US11573241B2",
  "about": "“Total cellular iron as a marker of cancer stem cells and uses thereof” (Institut National de la Sante et de la Recherche Medicale …, priority 2016, dated 2023)",
  "key": {"[1]": {"assay": "RhoNox-1 reduction assay", "conditions": "in the presence of iron (II)", "procedure": "RhoNox-1 reduction assay. Experiments were carried in 96-well plate dishes. Reagent stock solutions were freshly prepared using Milli-Q water. 50 μL of solutions of Sal (800 μM), DFO (800 μM) and FeSO4 (80 μM) were mixed prior to addition of 50 μL of RhoNox-1 (40 μM) and completed with the appropriate volume of water to reach a final volume of 200 μL per well. Measurements were performed 30 min after addition of RhoNox-1 to the mix and were recorded using the PARADIGM™ Microplate Detection Platform (ex. 492 nm; em. 580 nm)."}, "[2]": {"system": "U2OS, HMLER CD24^low, and iCSCL-10A2 cells", "assay": "Lysosomal ROS in cells", "assay_type": "cell-based"}, "[3]": {"system": "HMLER CD24^low cells", "assay": "Annexin V/PI assay", "assay_type": "cell-based, human", "conditions": "48 h", "procedure": "Annexin V/PI assay. Cells were treated as indicated. After treatment, cell death was quantified using Annexin V-FITC/Propidium Iodide (PI) assay according to the manufacturer's protocol (FITC Annexin V Apoptosis Detection Kit II, 556570, BD Pharmingen™) and analyzed by a LSRFortessa™ flow cytometer (BD Bioscience, San Jose, Calif.). The data were processed using Cell Quest software (BD Biosciences)."}},
  "note": "At least one structure is not confirmed: it was looked up by name or label, or the drawing left a doubt.",
  "data": [
    {"molecule": "CC(=O)N(O)CCCCCNC(=O)CCC(=O)N(O)CCCCCNC(=O)CCC(=O)N(O)CCCCCN", "note": "[DFO, deferoxamine]", "values": [
      {"measurement": "effect on iron reactivity (fluorogenic reduction of RhoNox-1)", "setting": "[1]", "result": "poisons iron"},
      {"measurement": "ROS levels in Sal/AM5 treated cells under co-treatment", "setting": "[2]", "result": "reduced ROS levels in treated cells"},
      {"measurement": "effect of co-treatment on cell death induced by Sal and AM5", "setting": "[3]", "result": "protective effect against Sal and AM5"}
    ]}
  ]
}
